This is an account of results in the supplement of paper PMC12067093, “Discovery and optimisation of a covalent ligand for TRIM25 and its application to targeted protein ubiquitination” (Chemical Science, 2025).

Sequences of proteins named here, by UniProt entry; tags and fusion partners are left off. A change or cut given only in a name is not applied to a line headed by its entry.
UniProt P28331, whole entry, looked up: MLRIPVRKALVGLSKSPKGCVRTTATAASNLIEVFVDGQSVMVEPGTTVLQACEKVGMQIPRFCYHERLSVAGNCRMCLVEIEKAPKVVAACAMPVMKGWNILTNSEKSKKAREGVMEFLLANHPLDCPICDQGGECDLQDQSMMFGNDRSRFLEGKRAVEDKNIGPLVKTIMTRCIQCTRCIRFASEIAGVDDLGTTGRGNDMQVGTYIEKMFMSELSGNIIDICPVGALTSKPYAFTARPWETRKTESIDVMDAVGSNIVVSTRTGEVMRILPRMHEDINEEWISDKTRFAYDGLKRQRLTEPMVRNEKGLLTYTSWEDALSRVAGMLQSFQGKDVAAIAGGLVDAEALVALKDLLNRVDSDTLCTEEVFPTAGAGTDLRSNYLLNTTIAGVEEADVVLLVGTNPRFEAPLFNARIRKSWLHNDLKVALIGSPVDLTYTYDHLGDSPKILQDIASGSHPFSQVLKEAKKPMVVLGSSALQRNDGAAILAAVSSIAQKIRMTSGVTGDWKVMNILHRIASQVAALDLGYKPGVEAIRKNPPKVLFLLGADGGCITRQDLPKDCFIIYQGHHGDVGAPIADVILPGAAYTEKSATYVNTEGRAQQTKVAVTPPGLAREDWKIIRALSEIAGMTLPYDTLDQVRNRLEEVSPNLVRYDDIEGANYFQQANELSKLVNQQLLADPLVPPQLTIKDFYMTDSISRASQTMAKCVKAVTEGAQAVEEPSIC
UniProt Q96IV0: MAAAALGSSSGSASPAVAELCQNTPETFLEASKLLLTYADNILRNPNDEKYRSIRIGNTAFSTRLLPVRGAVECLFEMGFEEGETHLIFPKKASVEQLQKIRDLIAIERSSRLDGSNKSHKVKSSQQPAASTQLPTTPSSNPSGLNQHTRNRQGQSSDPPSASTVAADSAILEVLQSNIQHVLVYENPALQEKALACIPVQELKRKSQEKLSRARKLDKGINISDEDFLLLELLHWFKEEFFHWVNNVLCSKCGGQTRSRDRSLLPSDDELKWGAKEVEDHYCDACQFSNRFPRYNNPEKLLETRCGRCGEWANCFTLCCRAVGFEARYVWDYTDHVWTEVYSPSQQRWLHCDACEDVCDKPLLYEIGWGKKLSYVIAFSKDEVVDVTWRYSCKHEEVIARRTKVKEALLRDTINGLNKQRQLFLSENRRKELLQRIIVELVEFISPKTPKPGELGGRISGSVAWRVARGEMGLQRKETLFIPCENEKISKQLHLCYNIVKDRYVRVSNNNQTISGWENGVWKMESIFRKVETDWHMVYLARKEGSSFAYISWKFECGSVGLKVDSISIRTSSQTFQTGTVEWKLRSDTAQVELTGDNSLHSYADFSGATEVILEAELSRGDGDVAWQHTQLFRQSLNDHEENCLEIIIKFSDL
UniProt Q9BU61: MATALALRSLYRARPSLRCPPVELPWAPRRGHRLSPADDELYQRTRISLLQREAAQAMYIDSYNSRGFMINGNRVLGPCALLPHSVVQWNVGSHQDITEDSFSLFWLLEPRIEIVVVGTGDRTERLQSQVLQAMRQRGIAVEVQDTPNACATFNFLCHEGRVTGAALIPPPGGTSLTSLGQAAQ
UniProt Q12986: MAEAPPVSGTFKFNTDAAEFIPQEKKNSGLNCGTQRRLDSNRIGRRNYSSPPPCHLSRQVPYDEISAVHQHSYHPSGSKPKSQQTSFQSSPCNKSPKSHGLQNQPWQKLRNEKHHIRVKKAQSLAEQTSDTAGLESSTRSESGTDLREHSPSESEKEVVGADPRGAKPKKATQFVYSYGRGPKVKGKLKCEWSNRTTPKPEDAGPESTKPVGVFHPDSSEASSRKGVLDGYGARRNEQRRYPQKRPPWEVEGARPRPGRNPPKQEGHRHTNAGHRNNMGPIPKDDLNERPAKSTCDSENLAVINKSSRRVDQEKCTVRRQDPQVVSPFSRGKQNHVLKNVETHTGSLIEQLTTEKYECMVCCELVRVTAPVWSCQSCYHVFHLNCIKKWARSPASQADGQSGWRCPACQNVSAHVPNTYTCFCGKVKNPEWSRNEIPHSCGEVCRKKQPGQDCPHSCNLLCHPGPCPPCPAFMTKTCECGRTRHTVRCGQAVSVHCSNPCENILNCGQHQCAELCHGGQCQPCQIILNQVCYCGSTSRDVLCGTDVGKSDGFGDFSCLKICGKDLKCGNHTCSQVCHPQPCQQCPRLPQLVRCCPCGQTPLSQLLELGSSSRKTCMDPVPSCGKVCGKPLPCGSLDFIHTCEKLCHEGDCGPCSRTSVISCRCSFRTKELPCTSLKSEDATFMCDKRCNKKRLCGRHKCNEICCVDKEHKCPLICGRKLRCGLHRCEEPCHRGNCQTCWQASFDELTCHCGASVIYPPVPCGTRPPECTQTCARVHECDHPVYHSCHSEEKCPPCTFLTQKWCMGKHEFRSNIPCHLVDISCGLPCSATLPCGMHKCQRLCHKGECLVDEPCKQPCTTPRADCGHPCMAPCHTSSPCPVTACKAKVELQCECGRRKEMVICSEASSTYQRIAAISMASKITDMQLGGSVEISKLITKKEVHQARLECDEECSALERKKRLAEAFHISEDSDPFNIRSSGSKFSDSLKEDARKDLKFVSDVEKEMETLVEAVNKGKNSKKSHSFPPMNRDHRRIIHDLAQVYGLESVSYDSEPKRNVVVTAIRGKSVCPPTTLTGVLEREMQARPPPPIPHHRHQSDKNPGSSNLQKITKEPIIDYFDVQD
UniProt O60524: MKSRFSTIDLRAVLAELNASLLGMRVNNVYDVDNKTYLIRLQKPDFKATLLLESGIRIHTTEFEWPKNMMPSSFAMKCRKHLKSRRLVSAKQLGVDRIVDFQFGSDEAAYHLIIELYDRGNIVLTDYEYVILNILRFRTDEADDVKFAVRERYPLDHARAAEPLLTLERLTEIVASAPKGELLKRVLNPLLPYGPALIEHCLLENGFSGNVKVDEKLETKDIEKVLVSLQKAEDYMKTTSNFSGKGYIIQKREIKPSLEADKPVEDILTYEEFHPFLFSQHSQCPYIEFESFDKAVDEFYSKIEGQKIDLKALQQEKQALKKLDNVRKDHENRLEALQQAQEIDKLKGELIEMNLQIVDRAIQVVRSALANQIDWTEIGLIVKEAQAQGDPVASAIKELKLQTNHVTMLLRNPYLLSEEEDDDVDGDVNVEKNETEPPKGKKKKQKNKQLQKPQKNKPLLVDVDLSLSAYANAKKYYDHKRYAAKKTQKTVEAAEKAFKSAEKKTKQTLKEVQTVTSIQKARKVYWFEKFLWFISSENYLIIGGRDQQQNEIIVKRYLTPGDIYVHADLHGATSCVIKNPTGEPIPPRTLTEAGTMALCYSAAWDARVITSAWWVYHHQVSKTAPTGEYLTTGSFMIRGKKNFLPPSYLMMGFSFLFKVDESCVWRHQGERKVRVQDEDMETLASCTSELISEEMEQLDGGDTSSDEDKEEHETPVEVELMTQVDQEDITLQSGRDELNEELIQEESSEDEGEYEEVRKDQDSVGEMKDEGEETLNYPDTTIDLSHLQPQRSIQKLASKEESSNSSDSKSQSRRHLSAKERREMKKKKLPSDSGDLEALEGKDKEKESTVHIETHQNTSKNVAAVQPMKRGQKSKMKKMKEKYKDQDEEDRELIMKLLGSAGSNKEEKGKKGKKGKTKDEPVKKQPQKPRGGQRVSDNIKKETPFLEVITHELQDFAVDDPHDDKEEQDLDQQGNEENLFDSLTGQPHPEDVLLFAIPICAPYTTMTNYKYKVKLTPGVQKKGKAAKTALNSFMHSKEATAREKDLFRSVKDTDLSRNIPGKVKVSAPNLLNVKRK
UniProt O43920, whole entry, looked up: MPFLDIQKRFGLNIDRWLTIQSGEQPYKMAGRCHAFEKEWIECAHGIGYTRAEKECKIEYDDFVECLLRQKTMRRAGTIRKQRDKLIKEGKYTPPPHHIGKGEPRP
UniProt Q9NQR4: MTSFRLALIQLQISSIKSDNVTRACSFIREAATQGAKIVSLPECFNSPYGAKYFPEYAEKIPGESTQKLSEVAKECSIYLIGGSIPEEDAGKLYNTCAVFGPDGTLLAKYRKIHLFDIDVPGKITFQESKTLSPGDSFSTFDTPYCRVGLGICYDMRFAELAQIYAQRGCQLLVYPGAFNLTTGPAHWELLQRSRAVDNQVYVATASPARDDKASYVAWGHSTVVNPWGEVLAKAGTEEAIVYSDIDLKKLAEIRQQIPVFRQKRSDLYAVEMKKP
UniProt P14543: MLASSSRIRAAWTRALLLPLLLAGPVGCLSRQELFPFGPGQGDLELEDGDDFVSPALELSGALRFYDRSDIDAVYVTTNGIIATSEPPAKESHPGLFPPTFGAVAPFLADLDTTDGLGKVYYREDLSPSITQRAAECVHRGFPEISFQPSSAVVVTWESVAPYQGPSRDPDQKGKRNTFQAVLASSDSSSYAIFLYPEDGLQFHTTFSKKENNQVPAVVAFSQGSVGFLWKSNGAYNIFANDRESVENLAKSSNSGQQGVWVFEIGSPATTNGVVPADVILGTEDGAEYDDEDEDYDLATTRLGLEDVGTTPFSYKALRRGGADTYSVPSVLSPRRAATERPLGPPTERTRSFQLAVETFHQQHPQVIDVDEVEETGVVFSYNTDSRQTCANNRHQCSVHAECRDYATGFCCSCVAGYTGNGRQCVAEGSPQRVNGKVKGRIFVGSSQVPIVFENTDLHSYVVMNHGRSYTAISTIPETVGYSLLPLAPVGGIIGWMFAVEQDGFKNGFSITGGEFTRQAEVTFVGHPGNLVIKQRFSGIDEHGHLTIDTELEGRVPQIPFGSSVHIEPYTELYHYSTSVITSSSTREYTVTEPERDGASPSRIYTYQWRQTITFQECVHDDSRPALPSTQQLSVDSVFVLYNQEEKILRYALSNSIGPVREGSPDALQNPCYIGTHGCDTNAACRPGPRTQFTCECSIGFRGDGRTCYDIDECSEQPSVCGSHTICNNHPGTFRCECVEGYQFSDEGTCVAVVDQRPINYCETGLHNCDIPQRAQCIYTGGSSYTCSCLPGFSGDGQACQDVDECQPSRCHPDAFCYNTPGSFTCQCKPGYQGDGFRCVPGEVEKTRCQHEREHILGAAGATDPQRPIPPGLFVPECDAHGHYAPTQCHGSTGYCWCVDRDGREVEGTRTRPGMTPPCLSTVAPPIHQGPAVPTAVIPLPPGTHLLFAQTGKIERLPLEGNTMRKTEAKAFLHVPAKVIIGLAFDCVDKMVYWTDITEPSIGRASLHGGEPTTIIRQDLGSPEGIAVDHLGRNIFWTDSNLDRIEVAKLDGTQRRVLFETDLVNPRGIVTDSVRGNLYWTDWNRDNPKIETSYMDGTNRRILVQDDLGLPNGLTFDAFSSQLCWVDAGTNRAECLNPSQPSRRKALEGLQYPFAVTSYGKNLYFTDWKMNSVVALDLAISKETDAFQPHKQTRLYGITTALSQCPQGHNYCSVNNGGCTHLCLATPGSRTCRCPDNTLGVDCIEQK
UniProt O15226: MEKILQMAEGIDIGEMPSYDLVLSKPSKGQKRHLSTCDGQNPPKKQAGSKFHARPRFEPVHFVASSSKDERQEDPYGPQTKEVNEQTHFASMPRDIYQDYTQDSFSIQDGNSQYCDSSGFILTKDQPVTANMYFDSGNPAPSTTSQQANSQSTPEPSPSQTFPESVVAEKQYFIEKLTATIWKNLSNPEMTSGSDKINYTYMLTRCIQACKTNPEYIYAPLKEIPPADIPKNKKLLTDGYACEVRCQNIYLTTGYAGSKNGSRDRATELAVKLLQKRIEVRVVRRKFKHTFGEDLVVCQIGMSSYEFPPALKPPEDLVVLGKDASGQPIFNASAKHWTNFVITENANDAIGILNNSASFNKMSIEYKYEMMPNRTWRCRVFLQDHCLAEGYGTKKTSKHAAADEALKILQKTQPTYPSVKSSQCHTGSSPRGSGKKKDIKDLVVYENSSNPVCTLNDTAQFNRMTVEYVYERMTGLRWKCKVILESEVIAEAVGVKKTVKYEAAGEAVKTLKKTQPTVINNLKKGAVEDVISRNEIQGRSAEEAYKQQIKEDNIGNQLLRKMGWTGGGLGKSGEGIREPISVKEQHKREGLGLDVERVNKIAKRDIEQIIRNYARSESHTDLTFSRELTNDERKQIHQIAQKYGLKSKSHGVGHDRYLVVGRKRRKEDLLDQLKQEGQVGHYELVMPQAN
UniProt Q86X76: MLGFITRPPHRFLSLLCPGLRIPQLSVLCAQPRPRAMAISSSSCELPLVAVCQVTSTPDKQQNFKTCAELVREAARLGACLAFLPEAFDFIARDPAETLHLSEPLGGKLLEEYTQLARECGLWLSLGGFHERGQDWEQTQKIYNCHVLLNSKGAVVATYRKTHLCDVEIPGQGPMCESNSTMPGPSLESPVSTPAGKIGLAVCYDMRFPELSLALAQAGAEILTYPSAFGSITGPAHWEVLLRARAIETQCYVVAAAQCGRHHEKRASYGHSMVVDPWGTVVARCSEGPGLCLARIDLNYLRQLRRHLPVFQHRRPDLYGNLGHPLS

The list shows a part of the results.

Compound in the test: Cc1cc(ccc1-c1ccccc1)C(=O)N1CCCN(CC1)C(=O)CCl [compound 10]
The experiment in a line: probe-labelled cysteine peptide fold change vs DMSO (competition) (log2 fold change); higher = less target engagement (more negative = stronger competition). Conditions: THP-1, incubation time: 4 h.
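Also: competitive profiling in live THP-1 cells: cysteine peptides tagged with an iodoacetamide desthiobiotin (IA-DTB) probe, intensity after compound treatment relative to DMSO-treated cells.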

For the target “NDUFS1_P28331_727_AVTEGAQAVEEPSIC (UniProt P28331)”, the “probe-labelled cysteine peptide fold change” value is, setting by setting: (10 µM) -0.199; (50 µM) 0.0438.
For “NGLY1_Q96IV0_484_KETLFIPCENEK (UniProt Q96IV0)”, the “probe-labelled cysteine peptide fold change” value runs as follows: (10 µM) -0.0225; (50 µM) 0.0731.
Regarding “NDUFAF3_Q9BU61_150_GIAVEVQDTPNACATFNFLCHEGR (UniProt Q9BU61)”, the “probe-labelled cysteine peptide fold change” value was 0.338 (10 µM) and -0.204 (50 µM).
“NISCH_Q9Y2I1_403_SIGSLPCLEHVSLLNNPLSIIPDYR (UniProt Q9Y2I1)”: the “probe-labelled cysteine peptide fold change” value (10 µM) is 0.0347 and the “probe-labelled cysteine peptide fold change” value (50 µM) worked out at 0.365.
For “NIPBL_Q6KC79_573_QCNDAPVSVLQEDIVGSLK (UniProt Q6KC79)”, the “probe-labelled cysteine peptide fold change” value is -0.146 (10 µM) and -0.224 (50 µM).
The matching figures for “NFX1_Q12986_947+951_LECDEECSALER (UniProt Q12986)”: -0.238 and -0.409.
Regarding “NGLY1_Q96IV0_484_ETLFIPCENEK (UniProt Q96IV0)”, the “probe-labelled cysteine peptide fold change” value reads like this: (10 µM) -0.0711; (50 µM) -0.0217.
On to “NCOA7_Q8NI08_762_STCSYYEDEDEEVLPVLRPHSALLENMHIEQLAR (UniProt Q8NI08)”, for which the “probe-labelled cysteine peptide fold change” value (10 µM) was 0.0816 and the “probe-labelled cysteine peptide fold change” value (50 µM) is 0.0195.
Take “NEMF_O60524_663_VDESCVWR (UniProt O60524)”: the “probe-labelled cysteine peptide fold change” value reads like this: (10 µM) -0.358; (50 µM) 0.713.
For “NDUFS5_O43920_33_CHAFEK (UniProt O43920)” the same measures were -0.203 and 0.0729.
On to “NIT2_Q9NQR4_76_ECSIYLIGGSIPEEDAGK (UniProt Q9NQR4)”, for which the “probe-labelled cysteine peptide fold change” value (10 µM) worked out at 0.231 and the “probe-labelled cysteine peptide fold change” value (50 µM) is 0.423.
“NDUFS1_P28331_75_LSVAGNCR (UniProt P28331)”: the “probe-labelled cysteine peptide fold change” value reads like this: (10 µM) -0.0766; (50 µM) -0.243.
For “NID1_P14543_425_QCVAEGSPQR (UniProt P14543)” the same measures were -0.139 and -0.633.
For “NKRF_O15226_242_LLTDGYACEVR (UniProt O15226)” the same measures were 0.0704 and -0.331.
Regarding “NFX1_Q12986_295_STCDSENLAVINK (UniProt Q12986)”, the “probe-labelled cysteine peptide fold change” value by setting is: (10 µM) 0.0638; (50 µM) -0.0574.
The matching figures for “NCL_P19338_543_EALNSCNK (UniProt P19338)”: 0.0894 and 0.244.
With “NEIL3_Q8TAT5_259_RPNCGQCHCR (UniProt Q8TAT5)”, the “probe-labelled cysteine peptide fold change” value is 0.113 (10 µM) and -1.02 (50 µM).
On to “NID1_P14543_685_EGSPDALQNPCYIGTHGCDTNAACRPGPR (UniProt P14543)”, for which the “probe-labelled cysteine peptide fold change” value runs as follows: (10 µM) 0.398; (50 µM) 0.166.
The matching figures for “NIT1_Q86X76_251+259_AIETQCYVVAAAQCGR (UniProt Q86X76)”: 0.372 and 0.793.
Consider “NEK9_Q8TD19_288_AMEVDSSQYSLELIQMVHSCLDQDPEQRPTADELLDRPLLR (UniProt Q8TD19)”, for which the “probe-labelled cysteine peptide fold change” value turned out to be 0.0112 (10 µM) and 0.231 (50 µM).
As for “NFATC1_O95644_587_TLSLQVASNPIECSQR (UniProt O95644)”, the “probe-labelled cysteine peptide fold change” value (10 µM) was 0.242 and the “probe-labelled cysteine peptide fold change” value (50 µM) was -0.122.
Regarding “NELFA_Q9H3P2_471_ENPCQEQGDVIQIK (UniProt Q9H3P2)”, the “probe-labelled cysteine peptide fold change” value is -0.294 (10 µM) and -0.242 (50 µM).
Regarding “NCOR2_Q9Y618_1503_ACYEESLK (UniProt Q9Y618)”, the “probe-labelled cysteine peptide fold change” value was -0.221 (10 µM) and -0.21 (50 µM).
The matching figures for “NDUFV1_P49821_382_HESCGQCTPCR (UniProt P49821)”: 0.0373 and 0.0241.
For the target “NFATC3_Q12968_90_NYEGTCEIPESK (UniProt Q12968)”, the “probe-labelled cysteine peptide fold change” value runs as follows: (10 µM) -0.215; (50 µM) -0.319.
As to “NDC80_O14777_100_QLCEFLTENGYAHNVSMK (UniProt O14777)”, the “probe-labelled cysteine peptide fold change” value runs as follows: (10 µM) 0.0109; (50 µM) -0.136.
Take “NIF3L1_Q9GZT8_148_GLGACTSRPIHPSK (UniProt Q9GZT8)”: the “probe-labelled cysteine peptide fold change” value (10 µM) is -0.146 and the “probe-labelled cysteine peptide fold change” value (50 µM) is -0.118.
For “NELFCD_Q8IXH7_461_YFQLQTDHTPVHLALLDEISTCHQLLHPQVLQLLVK (UniProt Q8IXH7)” the same measures were 0.128 and 0.201.
As to “NDUFS8_O00217_121_LCEAICPAQAITIEAEPR (UniProt O00217)”, the “probe-labelled cysteine peptide fold change” value reads like this: (10 µM) 0.428; (50 µM) 0.213.
For “NFX1_Q12986_423_CPACQNVSAHVPNTYTCFCGK (UniProt Q12986)” the same measures were 0.223 and 0.12.
For the target “NFKBIE_O00221_457_GLMGISSTLCK (UniProt O00221)”, the “probe-labelled cysteine peptide fold change” value was 0.109 (10 µM) and -0.56 (50 µM).
As to “NFX1_Q12986_832_SNIPCHLVDISCGLPCSATLPCGMHK (UniProt Q12986)”, the “probe-labelled cysteine peptide fold change” value by setting is: (10 µM) 0.0656; (50 µM) -0.155.
The matching figures for “NFX1_Q12986_444_NEIPHSCGEVCR (UniProt Q12986)”: 0.165 and 0.0254.
The matching figures for “NFKBIB_Q15653_135_GHTALHLACR (UniProt Q15653)”: 0.255 and 0.187.
The matching figures for “NKRF_O15226_386_VFLQDHCLAEGYGTKK (UniProt O15226)”: -0.0306 and -0.547.
Consider “NEMF_O60524_201_VLNPLLPYGPALIEHCLLENGFSGNVK (UniProt O60524)”, for which the “probe-labelled cysteine peptide fold change” value (10 µM) amounted to 0.0796 and the “probe-labelled cysteine peptide fold change” value (50 µM) is -0.0864.
